Assay results: PubChem BioAssay AID1259415 (National Center for Advancing Translational Sciences (NCATS), 2018)
Screen size: about 410,000 compounds; about 18,000 (4.4%) were called active. Inconclusive means that the source gave no clear call. Such entries were picked first, then a sample of the others. Rule as the data show it: active = activity change below about -60%; inconclusive = no clear call, values can overlap the other calls; inactive = above about -39%.

assay: qHTS Assay for inhibitors of the human cytomegalovirus (HCMV); conditions: HFF cells, HCMV-luciferase reporter, 72 h; at 57.5 µM; stronger effect = lower value
How it was run: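 Cell-based, HFFs, 1000 cells/well, 16 h 37C; cpds in DMSO + HCMV-luc, MOI 1 PFU/cell; 72 h 37C; OneGlo luminescence after 5 min RT; norm. to buffer vs Salinomycin 10uM.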
% is scaled to controls: 0 for no effect and ±100 for the full control effect.

| SMILES | activity change, negative = inhibition |
| --- | --- |
| Cc1c2ccncc2cc2c1[nH]c1ccccc12 | inconclusive: -44% |
| C[N+]1(C)CCC(OC(=O)C(O)(c2ccccc2)C2CCCC2)C1 (configuration not stated) | active: -89.5% |
| CC(=O)c1ccc(N/N=C(/C(N)=O)C2=NC(C)(C)Cc3ccccc32)cc1 | inconclusive: -46.2% |
| COc1ccc(CNC(=O)C(=O)NCC2OCCN2C(=O)c2ccc(OC)cc2)cc1 (configuration not stated) | inconclusive: -53.5% |
| COc1ccc(C(=O)N2CCN(C(=O)c3ccco3)CC2)cc1 | inactive: 37.9% |
| Cc1ccccc1OCC(O)CN1CCC(C)CC1 (configuration not stated) | inconclusive: -42.9% |
| COc1ccccc1OCCCC(=O)Nc1ccc(N2CCOCC2)cc1 | inconclusive: -42.9% |
| CCc1cccc(-n2nnc(-c3nc(-c4ccccc4Cl)no3)c2N)c1 | inconclusive: -49.2% |
| O=C(Nc1cccc(F)c1)C1CCN(c2nnnn2-c2ccccc2)CC1 | inactive: -11.1% |
| Cc1ccc(Nc2nc(N)nc(CCl)n2)c(C)c1 | active: -103% |
| Clc1ccc(Nc2ncn[nH]2)c(Cl)c1 | inconclusive: -46.9% |
| CCCc1nc2oc3c(NCCCN(C)C)ncnc3c2c2c1CCCC2 | active: -98.1% |
| CC(=NNS(=O)(=O)c1ccc(C)cc1)c1ccncc1 | inconclusive: -44.8% |
| CN=C1S/C(=C\c2cc(C)n(-c3ccccc3F)c2C)C(=O)N1C | active: -65.5% |
| Cc1nc(S(=O)(=O)NC2CCCCC2)c(C#N)c(C)c1Cl | inconclusive: -43% |
| COCCn1c(-c2ccc(C)cc2)nc2c(c(=O)c3ccccc3n2C)c1=O | inconclusive: -49.3% |
| CNC(=O)C1CC(=O)N(CCc2ccc(C)cc2)C1 (configuration not stated) | active: -69.5% |
| COC(=O)c1ccc(NC(=O)Nc2ccc(OC)cc2)cc1 | inconclusive: -44% |
| CCOc1cc(/C=C/C(=O)c2ccc(C)cc2)ccc1OCC(=O)N(C)C | active: -97.3% |
| CCOc1ccc2nc(N3C(=O)CNC3=S)sc2c1 | active: -106% |
| Cc1ccc(OCCOC(=O)Nc2ccccc2)cc1 | active: -62% |
| Cn1nnc2c(NCc3ccccc3Cl)ncnc21 | inactive: 105% |
| O=C(CCNS(=O)(=O)c1ccc(Cl)cc1)OCC(=O)N1CCN(C(=O)c2ccco2)CC1 | inactive: 18.3% |

Looked up by compound from above:

| SMILES | activity change, negative = inhibition |
| --- | --- |
| CNC(=O)C1CC(=O)N(CCc2ccc(C)cc2)C1 (configuration not stated) | active: -69.5% |
| CCc1cccc(-n2nnc(-c3nc(-c4ccccc4Cl)no3)c2N)c1 | inconclusive: -49.2% |
| Cc1nc(S(=O)(=O)NC2CCCCC2)c(C#N)c(C)c1Cl | inconclusive: -43% |
| Cc1ccc(Nc2nc(N)nc(CCl)n2)c(C)c1 | active: -103% |

Continuation:

| SMILES | activity change, negative = inhibition |
| --- | --- |
| CCC1=Nc2cc(C(=O)NCCN3CCCC3)ccc2Sc2ccccc21 | inconclusive: -57.2% |
| COc1ccc(NC(=O)N2CCCc3ccccc32)c(OC)c1 | inactive: -16.7% |
| Cc1ccccc1OCCC(=O)Nc1ccc(S(=O)(=O)N2CCCC2)cc1 | inactive: 19.8% |
| Cc1ccc2c(C(=O)CN3CCCCC3CCO)c(C)[nH]c2c1 (configuration not stated) | inconclusive: -51% |
| O=C(Nc1nc2n(n1)C(c1ccc(F)cc1)CC(c1ccccc1)N2)c1ccco1 (configuration not stated) | inactive: -4.11% |
| Fc1c(F)c(F)c(N/N=C/c2c[nH]c3ccccc23)c(F)c1F | active: -65.4% |
| Fc1cccc(CNc2ncnc3cc(Cl)ccc23)c1F | inconclusive: -51.3% |
| O=C(Nc1cccc(F)c1)c1ccco1 | inconclusive: -46.5% |
| COc1ccc(NC(=O)C2Cc3c(-c4cccc(C(C)=O)c4)ccnc3O2)cc1 (configuration not stated) | inconclusive: -48.4% |
| COc1cccc(C(=O)Nc2cccc(-c3ccc(N4CCOCC4)nn3)c2)c1OC | inactive: 124% |
| CCOC(=O)C1CCCN(C(=O)c2ccc(C)c(NC(=O)C3=C(C)OCCS3)c2)C1 (configuration not stated) | inactive: -19.2% |
| Cc1ccc(-c2cc(C(=O)Nc3cnn(C45CC6CC(CC(C6)C4)C5)c3)no2)cc1 | inactive: -4.66% |
| Cc1ccccc1CN(C)CCc1ccccn1 | inconclusive: -43.4% |
| O=C(Cc1cccc(NC(=O)C2CCN(S(=O)(=O)c3cccc([N+](=O)[O-])c3)CC2)c1)Nc1cccc(C(=O)N2CCCCC2)c1 | inactive: 15.8% |
| Cc1ccc(C(=O)Nc2cnc3ccccc3c2)cc1 | active: -81.3% |
| CCCN(CCC)CCNC(=O)c1cc2c(-c3ccc(Cl)cc3)nn(C)c2s1 | inconclusive: -59.3% |
| CCCNC(=O)Nc1cccc(NC(C)=O)c1 | inconclusive: -47.1% |
| O=C(Nc1cccc(Cl)c1Cl)c1cc2nc(-c3ccc(Cl)cc3)cc(C(F)(F)F)n2n1 | inactive: 5.82% |
| CCCOc1ccc(C2Nc3cccc4cccc(c34)N2)cc1 | inactive: 71.4% |
| Cc1nc2cc(C(F)(F)F)ccc2n1C1CCN(CC(=O)NC(C)(C)C)CC1 | active: -81.8% |
| Cc1ccc(CN2C(=O)CN(C3CCC(C)CC3)C(=O)C2c2ccc(F)cc2)cc1 (configuration not stated) | inconclusive: -47.3% |
| COc1cc(CNCCO)cc(Br)c1OCc1cccs1 | inconclusive: -49.8% |
| Cc1ccc(C(C(=O)NC(C)(C)C)N(Cc2ccccc2)C(=O)c2snc(C(N)=O)c2N)o1 (configuration not stated) | inconclusive: -52.7% |

| SMILES | activity change, negative = inhibition |
| --- | --- |
| CCCCCCCCCCCCCCCC[n+]1ccc(C(N)=O)cc1 | active: -85.5% |
| Cc1ccc(NC(=O)CSc2n[nH]c(-c3ccc(F)cc3)n2)cc1F | inconclusive: -47.6% |
| O=S(=O)(c1ccccc1)N1CCN=C1SCc1cccc(Cl)c1 | inconclusive: -55% |
| O=C(NN1C(=O)C2C3C=CC(O3)C2C1=O)c1ccccc1 (configuration not stated) | inconclusive: -40.6% |
| Cc1ccc(S(=O)(=O)N(C)C)cc1NC(=O)c1n[nH]c(=O)c2ccccc12 | inconclusive: -48.5% |
| Cc1nc2scc(-c3ccccc3)c2c(=O)n1N | inconclusive: -43.8% |
| CNC(=S)NCc1ccc2[nH]c3c(c2c1)CCCC3 | active: -67.4% |
| Oc1ccc(N2CCN(C(=S)NCc3ccccc3)CC2)cc1 | active: -63.6% |
| NS(=O)(=O)c1ccc(NC(=O)c2cccc3ccccc23)cc1 | inconclusive: -45.4% |
| CCN(CC)CCNC(=O)c1cc(-c2ccc(Br)s2)nc2ccccc12 | inconclusive: -44.1% |
| C/C(=N/NC(=O)c1ccn(C)n1)c1ccncc1 | inactive: 22.2% |
| COc1ccccc1N1CCN(C(=O)c2ccc(Cl)c(S(=O)(=O)N3CCCC3)c2)CC1 | active: -64.9% |
| CCN1CCSc2ccc(C(=O)Nc3ccc(NC(C)=O)cc3)cc21 | inconclusive: -56.7% |
| CCCCn1c(=O)c(C(=O)Nc2ccccc2S(N)(=O)=O)c(O)c2ccccc21 | inconclusive: -47.1% |
| Cc1ccccc1S(=O)(=O)Cc1ccc(C(=O)N2CCN(c3ccc(F)cc3)CC2)o1 | inconclusive: -54.6% |
| CN(C)S(=O)(=O)c1ccc(C(=O)Nc2ccccc2SCCC#N)cc1 | inconclusive: -47.8% |
| Cc1nc(NCC2CCCO2)c2oc3ccccc3c2n1 (configuration not stated) | inactive: -14.6% |
| COc1ccc(-c2noc(-c3ccc(N4CCCC4)c([N+](=O)[O-])c3)n2)cc1 | inconclusive: -45.7% |
| Cc1ccc(-c2csc3ncnc(NCCN4CCOCC4)c23)cc1 | active: -70.3% |
| Cc1ccc2c(c1)N(C)/C(=C/c1cccc[n+]1CCO)S2 | active: -97.1% |
| COc1ccc(C)cc1S(=O)(=O)NCC(c1cccs1)S(=O)(=O)c1ccc(C)cc1 (configuration not stated) | inconclusive: -41.3% |
| Cc1ccc(-n2cc(-c3ccccc3)c3c(NN4CCOCC4)ncnc32)cc1 | inconclusive: -51.7% |
| Nc1cc(S(=O)(=O)N2CCOCC2)ccc1Oc1cccc(Br)c1 | active: -77% |

| SMILES | activity change, negative = inhibition |
| --- | --- |
| CCNS(=O)(=O)c1ccc(Br)c(C(=O)OC(C)C(=O)NCC2CCCCC2)c1 (configuration not stated) | inactive: 2.95% |
| CCC(=NCCc1ccccc1)c1c(O)n(C)c(=O)n(C)c1=O | inconclusive: -50.3% |
| COc1cccc(C(=O)Nc2cccc(C(=O)N3CCOCC3)c2)c1 | active: -66.4% |
| O=C(NCc1ccc2c(c1)CCN2C(=O)c1ccccc1)Nc1cc(F)ccc1F | active: -84.8% |
| COc1ccc(Cn2c(CNS(=O)(=O)c3ccc(C)c(C)c3)nc3cccnc32)cc1 | inconclusive: -44.4% |
| N#CCSc1ncnc2c1cnn2CCO | inconclusive: -51.3% |
| Cc1cc(C)c(C(CC(=O)c2cccs2)C(C#N)C#N)c(C)c1 (configuration not stated) | inconclusive: -56.1% |
| Oc1ccc2oc3c(c2c1/C=N/n1cnnc1)CCCC3 | inconclusive: -43% |
| CN(C)CCCN1c2ccccc2Sc2ccc(C(F)(F)F)cc21 | inconclusive: -52.7% |
| CCCCOc1ccc(Cc2cnc(N)nc2N)cc1 | inconclusive: -42.2% |
| COc1ccc(CNS(=O)(=O)c2cc3c(cc2C)N(C)CCO3)cc1 | inconclusive: -57.2% |
| CCOC(=O)c1ccc(OCC2c3cc(OC)c(OC)cc3CCN2C(=O)c2ccc(S(=O)(=O)N3CCCC3)cc2)cc1 (configuration not stated) | inactive: 12.2% |
| C=CCn1c(O)c(CN2CCN(Cc3ccccc3)CC2)c(C)c(C#N)c1=O | inactive: 21.6% |
| CN1CCN(CCOC2Cc3ccccc3Sc3ccc(Cl)cc32)CC1 (configuration not stated) | inconclusive: -47.3% |
| COc1ccc(F)cc1C(=O)C1CCCN(C(=O)c2ccccc2N(C)C)C1 (configuration not stated) | inactive: 0% |
| C[C@H]1CN=C(N(C)C)N1CCCC1CCCCC1 | inactive: -22.1% |
| CC1C(=O)C(C)C(c2cc(Cl)ccc2O)NC1c1cc(Cl)ccc1O (configuration not stated) | inconclusive: -51.7% |
| Cc1cccc(NC(=O)CSc2ccc(-c3cccnc3)nn2)c1 | inconclusive: -43.1% |
| Cc1ccc(NS(=O)(=O)c2ccc(C(=O)N3CCN(c4ccccn4)CC3)cc2)cc1 | inconclusive: -49.3% |
| Cc1cccn2c(=O)c3cc(C#N)c(=NC(=O)c4cccs4)n(CC(C)C)c3nc12 | inactive: 24.7% |
| O=C(NC1CCOC1)c1ccc(OC2CCN(CCc3ccccc3)CC2)cc1 (configuration not stated) | inconclusive: 0% |
| COc1c(C)cccc1C(=O)Nc1ccc(N2CCOCC2)c(Cl)c1 | inactive: 20.5% |
| CCCCC(=O)NN(C)c1nc(-c2ccccc2)nnc1C(F)(F)F | inconclusive: -40.6% |
